For 4 molecules, binding results are on record in US20240279350A1.

Amino acid sequences for entries named in this document (tags omitted). A change or cut given only in a name is not applied to a line headed by its entry. Chains listed by the source or under a name are the forms on record and can include a tag or linker.
cynomolgus CD40 on HEK293 cells (G7PG38, form named): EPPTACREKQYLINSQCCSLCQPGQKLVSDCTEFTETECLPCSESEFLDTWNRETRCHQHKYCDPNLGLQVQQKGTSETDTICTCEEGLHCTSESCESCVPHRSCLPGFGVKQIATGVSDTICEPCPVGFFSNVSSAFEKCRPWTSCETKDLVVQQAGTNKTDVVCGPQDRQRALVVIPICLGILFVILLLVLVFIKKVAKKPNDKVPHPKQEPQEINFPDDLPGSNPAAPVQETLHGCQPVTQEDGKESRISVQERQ

Numbering of substitutions follows the chain as printed. Names may count otherwise. No constants are given. Whether binding was seen depends on the method and setting. Some binding calls cover weakened binding; strength is not graded here.

B1: mAb3 (Y32K) (antibody, human IgG2, kappa, V domains shown)
VH: QVQLVQSGAEVKKPGASVKVSCKASGYTFTGKYMHWVRQAPGQGLEWMGWINPDSGGTNYAQKFQGRVTMTRDTSISTAYMELNRLRSDDTAVYYCARDQPLGYCTNGVCSYFDYWGQGTLVTVSS
VL: DIQMTQSPSSVSASVGDRVTITCRASQGIYSWLAWYQQKPGKAPNLLIYTASTLQSGVPSRFSGSGSGTDFTLTISSLQPEDFATYYCQQANIFPLTFGGGTKVEIKR
B2: mAb2 (Y32K/S77P) (antibody, human IgG2, kappa, V domains shown)
VH: B1 VH with S77P
VL: B1 VL
B3: mAb4 (Y32R) (antibody, human IgG2, kappa, V domains shown)
VH: B1 VH with K32R
VL: B1 VL
B4: mAb1 (Y32K/S77A) (antibody, human IgG2, kappa)
heavy: QVQLVQSGAEVKKPGASVKVSCKASGYTFTGKYMHWVRQAPGQGLEWMGWINPDSGGTNYAQKFQGRVTMTRDTSIATAYMELNRLRSDDTAVYYCARDQPLGYCTNGVCSYFDYWGQGTLVTVSSASTKGPSVFPLAPCSRSTSESTAALGCLVKDYFPEPVTVSWNSGALTSGVHTFPAVLQSSGLYSLSSVVTVPSSNFGTQTYTCNVDHKPSNTKVDKTVERKCCVECPPCPAPPVAGPSVFLFPPKPKDTLMISRTPEVTCVVVDVSHEDPEVQFNWYVDGVEVHNAKTKPREEQFNSTFRVVSVLTVVHQDWLNGKEYKCKVSNKGLPAPIEKTISKTKGQPREPQVYTLPPSREEMTKNQVSLTCLVKGFYPSDIAVEWESNGQPENNYKTTPPMLDSDGSFFLYSKLTVDKSRWQQGNVFSCSVMHEALHNHYTQKSLSLSPGK
light: DIQMTQSPSSVSASVGDRVTITCRASQGIYSWLAWYQQKPGKAPNLLIYTASTLQSGVPSRFSGSGSGTDFTLTISSLQPEDFATYYCQQANIFPLTFGGGTKVEIKRTVAAPSVFIFPPSDEQLKSGTASVVCLLNNFYPREAKVQWKVDNALQSGNSQESVTEQDSKDSTYSLSSTLTLSKADYEKHKVYACEVTHQGLSSPVTKSFNRGEC

One test deals with cynomolgus CD40 on HEK293 cells (cynomolgus) (UniProt G7PG38). Description: flow cytometry on cynomolgus CD40-expressing HEK293 cells.
Turning to B1, the binding result was “binds”.

As to B2, the binding result is recorded as “binds”.

For B3, the binding result is recorded as “binds”.

As to B4, the binding result is given as “binds”.

The next test has the same target. Description: flow cytometry on cynomolgus CD40-expressing HEK293 cells, 1 h at 4 °C, AF488-conjugated secondary antibody (MFI). (A flow cytometer gives signals particle by particle.)
B1: the binding result is “binds”.

For B4, the binding entry is on record as “binds”.
